# Screening data, single-dose tests

Chains of the proteins cited; added tags and fusions are not shown. Residues count along the entry.
UniProt I6X8D2, whole entry: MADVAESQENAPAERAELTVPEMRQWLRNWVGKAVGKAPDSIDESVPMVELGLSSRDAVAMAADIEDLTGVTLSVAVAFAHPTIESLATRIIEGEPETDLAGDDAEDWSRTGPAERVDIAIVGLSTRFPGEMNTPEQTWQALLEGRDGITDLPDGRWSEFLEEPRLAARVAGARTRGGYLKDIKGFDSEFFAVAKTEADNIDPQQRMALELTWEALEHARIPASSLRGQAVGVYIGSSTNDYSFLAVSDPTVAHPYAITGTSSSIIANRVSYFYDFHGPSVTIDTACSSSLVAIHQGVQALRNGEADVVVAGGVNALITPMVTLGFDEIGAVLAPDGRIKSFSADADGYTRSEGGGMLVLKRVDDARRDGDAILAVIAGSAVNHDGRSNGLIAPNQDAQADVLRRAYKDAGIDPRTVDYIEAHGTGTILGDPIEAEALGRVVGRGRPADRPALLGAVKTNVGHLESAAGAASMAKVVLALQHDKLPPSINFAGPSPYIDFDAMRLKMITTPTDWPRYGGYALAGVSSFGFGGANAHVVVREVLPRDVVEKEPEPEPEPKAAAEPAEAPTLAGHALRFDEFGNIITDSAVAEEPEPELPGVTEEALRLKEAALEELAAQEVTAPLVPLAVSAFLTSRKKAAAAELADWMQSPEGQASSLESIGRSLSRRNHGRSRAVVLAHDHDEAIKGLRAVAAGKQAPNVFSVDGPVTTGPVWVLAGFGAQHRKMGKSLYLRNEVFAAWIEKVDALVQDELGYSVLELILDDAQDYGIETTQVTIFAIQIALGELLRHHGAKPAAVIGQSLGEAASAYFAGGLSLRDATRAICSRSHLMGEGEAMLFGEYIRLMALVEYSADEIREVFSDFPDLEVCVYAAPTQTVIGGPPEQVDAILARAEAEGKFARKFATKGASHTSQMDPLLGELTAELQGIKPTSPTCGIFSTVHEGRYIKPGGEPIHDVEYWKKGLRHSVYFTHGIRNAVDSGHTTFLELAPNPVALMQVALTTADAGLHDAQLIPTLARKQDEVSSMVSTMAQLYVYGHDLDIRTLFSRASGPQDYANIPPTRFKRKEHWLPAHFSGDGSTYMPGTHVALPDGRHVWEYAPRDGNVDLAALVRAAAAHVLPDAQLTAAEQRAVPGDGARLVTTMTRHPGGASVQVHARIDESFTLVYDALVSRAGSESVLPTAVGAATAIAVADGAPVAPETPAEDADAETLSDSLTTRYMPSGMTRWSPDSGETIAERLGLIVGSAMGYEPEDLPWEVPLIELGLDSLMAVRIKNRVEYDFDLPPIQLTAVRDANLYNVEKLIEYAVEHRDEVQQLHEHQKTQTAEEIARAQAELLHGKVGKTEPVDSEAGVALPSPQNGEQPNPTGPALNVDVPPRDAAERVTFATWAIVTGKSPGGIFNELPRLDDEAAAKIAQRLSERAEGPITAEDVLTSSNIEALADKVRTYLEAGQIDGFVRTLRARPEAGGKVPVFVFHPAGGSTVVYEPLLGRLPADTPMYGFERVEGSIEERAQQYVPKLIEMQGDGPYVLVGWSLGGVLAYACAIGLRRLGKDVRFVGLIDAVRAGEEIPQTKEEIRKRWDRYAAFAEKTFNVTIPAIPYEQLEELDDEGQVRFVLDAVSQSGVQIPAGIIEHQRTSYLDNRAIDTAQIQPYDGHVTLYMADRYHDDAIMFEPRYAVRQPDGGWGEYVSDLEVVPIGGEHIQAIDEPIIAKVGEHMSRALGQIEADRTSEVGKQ
UniProt Q4DA54, 1-478: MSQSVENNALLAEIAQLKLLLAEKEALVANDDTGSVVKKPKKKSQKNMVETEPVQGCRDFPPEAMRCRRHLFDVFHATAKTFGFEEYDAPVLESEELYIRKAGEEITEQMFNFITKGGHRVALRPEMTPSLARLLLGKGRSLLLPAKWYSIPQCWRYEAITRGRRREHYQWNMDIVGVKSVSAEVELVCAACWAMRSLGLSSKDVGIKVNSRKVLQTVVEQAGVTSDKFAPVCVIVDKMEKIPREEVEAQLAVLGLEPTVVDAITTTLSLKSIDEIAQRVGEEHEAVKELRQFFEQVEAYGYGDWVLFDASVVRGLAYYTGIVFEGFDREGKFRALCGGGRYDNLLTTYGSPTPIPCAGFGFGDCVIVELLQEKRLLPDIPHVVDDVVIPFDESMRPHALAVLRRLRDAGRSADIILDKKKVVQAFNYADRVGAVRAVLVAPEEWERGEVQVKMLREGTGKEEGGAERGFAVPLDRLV

The values are deposited in ChEMBL (CHEMBL3988442, “University of Dundee, Small-Polar-MMV Screening Library” (2021)).

Pks13 thioesterase: 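Enzyme assay of the thioesterase domain of polyketide synthase 13; the read-out is not stated. Target: Polyketide synthase Pks13, Mycobacterium tuberculosis (UniProt I6X8D2). Tested at 30 µM. The record gives no direction; the compounds picked for IC50 retests had high values, so higher reads as stronger inhibition. About 67,000 compounds were tested under these conditions; 0.46% (about 300) showed 50% or more at least once.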
TcHisRS: 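Enzyme assay of histidyl-tRNA synthetase; the read-out is not stated. Target: Histidine-tRNA ligase, Trypanosoma cruzi CL Brener (UniProt Q4DA54). Compounds at 30 µM. Direction is inferred from retests: higher values go with stronger inhibition. Size under these conditions: about 69,000 compounds, about 31 of them at 50% or above in at least one test.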

Values are the deposited “Percent Effect”, in %. The controls that fix the scale are not given in the record; negative values are as filed. The compounds are a random part of those screened. A dash means the value is not listed here; it may have been measured.

SMILES,Pks13 thioesterase,TcHisRS
CCCN1CCCn2nc(CNC(=O)CC(C)n3ccnc3C)cc2C1 (centres unmarked),-7.393,8.108
COCCCNC(=O)Nc1c(C)cccc1C(C)C,-3.485,6.957
Cc1c[nH]nc1C1CCN(C(=O)C2CCC2)CC1,2.787,0.3759
CCN1CCN(C(=O)c2cc(NC(=O)c3ccccc3)n(C)n2)CC1,1.361,9.901
CN(C)Cc1cc(C2CCCN(S(=O)(=O)c3cccc(Cl)c3)C2)nn1C (centres unmarked),-2.775,22.93
O=c1cc2c(nn1CN1CCN(c3cccc(Cl)c3)CC1)CCC2,-36.28,-0.5464
COc1ccccc1OCCN1CCCC(c2noc(C3CC3)n2)C1 (centres unmarked),-19.97,2.075
Cc1cccc(CN(C(=O)CS(C)(=O)=O)C(C)C)c1,-30.68,11.7
CS(=O)(=O)c1ccc(Cl)c(C(=O)NCCC2=CCCCC2)c1,-7.18,-4.762
Cc1ccc2nc(-c3cnc(N)nc3)c(C)c(C(=O)N(C)C)c2c1,6.535,2.222
CC(C)N1Cc2cccc(NCC(=O)N(C)C)c2C1,-31.87,12.3
O=C(NCCC1=CCCCC1)Nc1cc(C(F)(F)F)c[nH]c1=O,-47.16,0.2915
CN(C)c1nccc(N(C)C2CCOCC2)n1,-0.2547,8.671
CN1Cc2c(C(=O)NC3CCCCC3)ncn2-c2ccccc2S1(=O)=O,-11.52,7.035
O=C(NCc1cc[nH]n1)NCC(O)c1ccc(F)cc1F (centres unmarked),-4.37,2.642
Cc1cc(C)n(C2CCCN(C(=O)c3ccc(F)c(F)c3)C2)n1 (centres unmarked),-15.53,0.4484
Cc1c(NC(=O)c2noc3c2CCCC3)cnn1C,-31.74,-23.12
O=C(N[C@]12CC1CN(C(=O)c1ccco1)C2)c1ccoc1 (some centres unmarked),-16.32,2.913
CCc1n[nH]c(C2CN(C(=O)c3cnc(C)s3)CCO2)n1 (centres unmarked),-24.66,2.256
CC(NC(=O)NCc1cscn1)c1ccc(N2CCOCC2)cc1 (centres unmarked),3.24,2.976
Cc1cc(CNc2cncc(C(=O)N(C)C)n2)c2[nH]c(C)c(C)c2c1,1.788,6.341
CCc1nc2c(c(NCc3nc(-c4cccnc4)no3)n1)CCNCC2,8.481,1.571
CO[C@H]1CN(C(=O)OC(C)(C)C)CC1NCc1ccoc1 (some centres unmarked),-34.6,0.5848
COc1cccc(CNc2cc(N3CCCC3CO)ncn2)n1 (centres unmarked),-6.19,8.069
Cc1cc(-c2nccs2)nc(C2CCN(Cc3ccc(F)cc3)CC2)n1,3.139,6.513
Oc1nc(N2CCCC2)nc2c1CCN(Cc1ccsc1)CC2,0.752,6.084
COCCCN1CCCC2(CCN(S(=O)(=O)c3cccnc3)C2)C1=O (centres unmarked),-11.17,-1.657
Cc1ccsc1CNCCCOc1ccccn1,-11.39,7.018
Cc1ccc(NS(=O)(=O)c2cc3c(c(C(=O)O)c2)OCCO3)cc1C,-13.77,6.197
Cn1cc(CN2C[C@@H]3COC[C@]3(C(=O)NCCc3ccccc3)C2)cn1,-5.974,-1.869
CC(C)(C)C(=O)NCCC(=O)NS(=O)(=O)c1ccc2c(c1)OCCO2,-5.207,1.653
CN1CCCc2cc(CNC(=O)c3ccc(NC4CC4)nc3)ccc21,-3.983,1.88
CS(=O)(=O)N1CCC(C(=O)Nc2nnc(C(F)(F)F)[nH]2)CC1,-31.48,2.463
CCOCc1nc2c(c(N3CCCn4nc(C)cc4C3)n1)CCNCC2,-14.09,-9.231
O=C(COCc1ccccc1)Nc1ccccn1,-1.317,0.9804
COc1cccc(-n2cc(CN(C)C(=O)c3cnc(O)cn3)cn2)c1,-40.4,6.494
OC1(CNCCc2csc(-c3ccncc3)n2)CCCNC1 (centres unmarked),-31.73,5.603
Cc1nc(N2CCOCC2)nc2c1CN(C(=O)Cc1ccccn1)CC2,-14.79,2.51
Cc1ccc(S(=O)(=O)Cc2noc([C@@H]3C[C@@H](O)CN3)n2)cc1,-28.08,5.941
CCCC(O)CN1CCC(=O)N(CC2CC2)Cc2cc3c(cc21)OCO3 (centres unmarked),-17.52,6.742
Cn1cccc1C(=O)N1CCC2(CC1)CC(N1CCOCC1)C2,-12.38,-0.4808
O=C(C1CCOC1)N1CC2(CCN(c3ccccc3)C2)C1 (centres unmarked),-3.631,5.028
CCOc1ccccc1C(=O)N1CCCC1c1ncc2c(n1)CCNC2 (centres unmarked),-14.43,4.301
CSc1ccc(C(CNC(C)=O)N2CCc3sccc3C2)cc1 (centres unmarked),-12.4,10
CC(=O)Nc1ccc(Oc2cccc(CN3CCCC3)c2)cc1,-40.72,1.63
Cc1noc(C)c1-c1cccc(CC2CCN(C(=O)CN)C2)n1 (centres unmarked),-,4.444
CCn1ccc(NC(=O)CCc2c(C)nn(C)c2C)n1,18.72,8.911
CC1=C(C(=O)NCCc2n[nH]c3c2CCCC3)C(C)NC(=O)N1 (centres unmarked),-8.772,10.1
CC1CN(C(=O)c2ccc(C(N)=O)cc2)c2ccc(F)cc2O1 (centres unmarked),1.127,10.13
Cn1nccc1-c1nc2c(cc1C(=O)O)CCN(C(=O)C1CC1)CC2,-29.92,2.186
CC(=O)N1CCO[C@@H]2CN(Cc3ccccc3Cl)C[C@@H]2C1,-10.52,6.63
CCC(=O)N1CC[C@H]2[C@H](C[C@@H](CN3CCCC3)N2c2nccs2)C1,13.82,2.793
CCN(CC)[C@H]1COC[C@@H]2CN(Cc3cnn(C)c3)C[C@@H]21,-34.86,2.299
CCNC(=O)N1CCc2ccc(NC(=O)NCC3CC3)cc21,42.1,7.212
Cc1cnn(CCNCc2csc(-c3ccco3)n2)c1,-,15.98
CN(C)C(=O)c1cccc(CCNS(=O)(=O)c2ccccc2)c1,-15.61,4.082
OC1CCCN(Cc2c(-c3ccco3)[nH]c3ncccc23)C1 (centres unmarked),13.81,1.622
COc1cccc2c1OCCCN(c1nc(N)nc3c1CCNC3)C2,-14.47,-1.538
CCC(CO)N(Cc1ccccc1C)Cc1ccccc1C(=O)O (centres unmarked),0.4277,5.946
CCC(CO)N(Cc1ccsc1)CC1CC1 (centres unmarked),-19.95,7.514
CCCN1CCN(C(=O)c2scnc2C)CC1,-25.45,-1.087
COC(=O)CCC(=O)N1CCc2[nH]nc(-c3ccc4c(c3)OCO4)c2C1,-38.97,-1.695
Cc1oc(C)c(C(=O)NCc2ccccc2S(=O)(=O)N(C)C)c1C,-,5.703
Cc1noc(C)c1CN1C(=O)[C@H]2CC[C@@H]1CN(Cc1cscn1)C2,7.065,4.233
COC(=O)CCN(CC1CCCO1)C(=O)Cc1ccc(OC)c(OC)c1 (centres unmarked),5.246,0
O=C1NC2(CCN(C/C=C/c3ccccc3)CC2)CC1c1ccccc1 (centres unmarked),-11.88,0
Cc1cc(C)c2c(N3CCC(C(=O)N4CCCC4)CC3)ncnc2n1,8.589,12
NC(=O)C(c1ccc(F)cc1)N1CCN(CCO)CC1 (centres unmarked),-11.43,1.754
FC(F)(F)C1CCCn2c(CNCc3ccsc3)nnc21 (centres unmarked),-3.191,7.884
Cn1nc(CNC(=O)C2CCC2)cc1C1CC1,16.19,2.513
CC(C)c1nc2oc(C(=O)N3CCOCC3)c(N)c2c2c1CCCC2,-3.512,4
NC(=O)N1CCC2(CC1)CN(Cc1cccnc1)C(=O)CO2,-3.167,0.7519
CCc1ccccc1NC(=O)c1cccc(N(C)S(C)(=O)=O)c1C,-6.082,-2.02
CN(C)c1nc(N2CCCC2)nc2c1CCN(C(=O)c1ccco1)CC2,-14.27,6.897
CNC(=O)CN1CCOCC2(CN(CCC(F)(F)F)CCO2)C1 (centres unmarked),6.415,8.537
O=C(NCc1cnn(-c2ccc(F)cc2F)c1)C1CCCO1 (centres unmarked),-11.97,-1.053
c1cnn(Cc2nnc(C3CCN(C4CCOCC4)CC3)n2C2CC2)c1,-21.77,2.905
Cc1cc(C)n(C2CCCN(C(=O)CCOc3ccccc3F)C2)n1 (centres unmarked),0.2662,5.714
Cc1oc(C)c(C(=O)NS(=O)(=O)c2ccc3c(c2)OCCO3)c1Br,-,0
OCCOCc1ncn2c1CN(Cc1cccs1)CCC2,-13.78,0.9852
Cn1ccnc1CN1CCCN(C(=O)c2ccc3c(c2)OCO3)CC1,-6.102,2.89
CN1CCC(N(C)C(=O)Nc2ccc(Cl)cc2)CC1,0.8508,-1.042
N#CCSCCCN1CCCN(C(=O)c2ccccc2)CC1,-1.759,6.612
O=C1CCC2(CCCN(c3ncc(Cl)cc3F)C2)CN1CC1CC1 (centres unmarked),-15.4,7.595

The last 9 entries again:

O=C(NCc1cnn(-c2ccc(F)cc2F)c1)C1CCCO1 (centres unmarked) read Pks13 thioesterase: -11.97%; TcHisRS: -1.053%.
c1cnn(Cc2nnc(C3CCN(C4CCOCC4)CC3)n2C2CC2)c1 read Pks13 thioesterase: -21.77%; TcHisRS: 2.905%.
Cc1cc(C)n(C2CCCN(C(=O)CCOc3ccccc3F)C2)n1 (centres unmarked) read Pks13 thioesterase: 0.2662%; TcHisRS: 5.714%.
Cc1oc(C)c(C(=O)NS(=O)(=O)c2ccc3c(c2)OCCO3)c1Br read TcHisRS: 0%.
OCCOCc1ncn2c1CN(Cc1cccs1)CCC2 read Pks13 thioesterase: -13.78%; TcHisRS: 0.9852%.
Cn1ccnc1CN1CCCN(C(=O)c2ccc3c(c2)OCO3)CC1 read Pks13 thioesterase: -6.102%; TcHisRS: 2.89%.
CN1CCC(N(C)C(=O)Nc2ccc(Cl)cc2)CC1 read Pks13 thioesterase: 0.8508%; TcHisRS: -1.042%.
N#CCSCCCN1CCCN(C(=O)c2ccccc2)CC1 read Pks13 thioesterase: -1.759%; TcHisRS: 6.612%.
O=C1CCC2(CCCN(c3ncc(Cl)cc3F)C2)CN1CC1CC1 (centres unmarked) read Pks13 thioesterase: -15.4%; TcHisRS: 7.595%.